Results from PubChem BioAssay AID330 (DTP/NCI, 2004).
The list does not hold the whole screen: its compounds were picked by chemical class. Not every dose and run of a compound is shown. T/C gives the treated animals as a percentage of the vehicle group. Some entries give survivors of the animals treated and no T/C: the source files T/C as zero there, which appears to mark a toxic dose or a test without result, not a measured value. Some survivor counts are full or nearly so, which does not show that the dose was tolerated: survival well below the control is almost never listed, so the zero probably covers shortened survival too. Survivors were counted at the toxicity check, usually on the fifth day, unless a day is given; later deaths do not show. Schedule codes are those of the source, taken here to give the interval after Q, in days (D) or hours (H), and the number of doses after X. Some doses were run more than once; the results are listed from low to high. Where survival is the endpoint, the PubChem record calls one and a half times the control and up active, and a quarter to a half above the control has no call in these data; cut-offs in other NCI protocols can differ. Some T/C values are marked as having no survivor count here; that says nothing about deaths at the dose. Some T/C values are followed by the survivors on the day toxicity was checked, most often the fifth; without a count or a note in brackets, all were alive then.

System: P388 leukemia ip, CD2F1 mice, survival T/C
Assay: NCI In Vivo Anticancer Drug Screen. Data for tumor model P388 Leukemia (intraperitoneal) in CD2F1 (CDF1) mice
Conditions: T/C endpoint: median survival time, higher T/C = longer survival
[1] = dose: 100.0 mg/kg/injection, schedule: Q04DX003 (ip), vehicle: saline
[2] = dose: 200.0 mg/kg/injection, schedule: Q04DX003 (ip), vehicle: saline
[3] = dose: 400.0 mg/kg/injection, schedule: Q04DX003 (ip), vehicle: saline
[4] = dose: 25.0 mg/kg/injection, schedule: Q01DX005 (ip), vehicle: Klucel (hydroxypropylcellulose) (HPC)
[5] = dose: 50.0 mg/kg/injection, schedule: Q01DX005 (ip), vehicle: Klucel (hydroxypropylcellulose) (HPC)
[6] = dose: 100.0 mg/kg/injection, schedule: Q01DX005 (ip), vehicle: Klucel (hydroxypropylcellulose) (HPC)
[7] = dose: 200.0 mg/kg/injection, schedule: Q01DX005 (ip), vehicle: Klucel (hydroxypropylcellulose) (HPC)
[8] = dose: 12.5 mg/kg/injection, schedule: Q01DX005 (ip), vehicle: Klucel (hydroxypropylcellulose) (HPC)
[9] = dose: 25.0 mg/kg/injection, schedule: Q01DX009 (ip), vehicle: saline
[10] = dose: 50.0 mg/kg/injection, schedule: Q01DX009 (ip), vehicle: saline
[11] = dose: 100.0 mg/kg/injection, schedule: Q01DX009 (ip), vehicle: saline
[12] = dose: 200.0 mg/kg/injection, schedule: Q01DX009 (ip), vehicle: saline
[13] = dose: 50.0 mg/kg/injection, schedule: Q01DX009 (ip), vehicle: Klucel (hydroxypropylcellulose) (HPC)
[14] = dose: 100.0 mg/kg/injection, schedule: Q01DX009 (ip), vehicle: Klucel (hydroxypropylcellulose) (HPC)
[15] = dose: 200.0 mg/kg/injection, schedule: Q01DX009 (ip), vehicle: Klucel (hydroxypropylcellulose) (HPC)
[16] = dose: 25.0 mg/kg/injection, schedule: Q01DX009 (ip), vehicle: Klucel (hydroxypropylcellulose) (HPC)
[17] = dose: 12.5 mg/kg/injection, schedule: Q01DX009 (ip), vehicle: saline

O=[N+]([O-])c1cc([N+](=O)[O-])c(C=Cc2c([N+](=O)[O-])cc([N+](=O)[O-])c(Cl)c2[N+](=O)[O-])c([N+](=O)[O-])c1
T/C [1]: 96 % of control | T/C [2]: 92 % of control | T/C [3]: 101 % of control

CC1CCCN(C)C1.O=[N+]([O-])c1cc([N+](=O)[O-])c(O)c([N+](=O)[O-])c1
T/C [4]: 99 % of control | T/C [5]: 107 % of control | T/C [6]: 101 % of control [5 of 6 alive] | survivor count [7]: 0 of 6

CC(COCOCC(C)([N+](=O)[O-])[N+](=O)[O-])([N+](=O)[O-])[N+](=O)[O-]
T/C [1]: 97 % of control | T/C [2]: 97 % of control | T/C [3]: 98 % of control

[N-]=[N+]=NC1(N=[N+]=[N-])C(=O)NC(=O)NC1=O
T/C (dose: 3.12 mg/kg/injection, schedule: Q01DX005 (ip), vehicle: Klucel (hydroxypropylcellulose) (HPC)): 107 % of control [5 of 6 alive] | T/C (dose: 6.25 mg/kg/injection, schedule: Q01DX005 (ip), vehicle: Klucel (hydroxypropylcellulose) (HPC)): 101 % of control | T/C [8]: 112 % of control | survivor count [5]: 1 of 6 | survivor count [6]: 0 of 6 | survivor count [7]: 0 of 6

O=[N+]([O-])c1cc([N+](=O)[O-])c(-c2cc([N+](=O)[O-])c(-c3c([N+](=O)[O-])cc([N+](=O)[O-])cc3[N+](=O)[O-])o2)c([N+](=O)[O-])c1
T/C (dose: 50.0 mg/kg/injection, schedule: Q01DX009 (ip), vehicle: saline with Tween-80): 103 % of control | T/C (dose: 100.0 mg/kg/injection, schedule: Q01DX009 (ip), vehicle: saline with Tween-80): 94 % of control | T/C (dose: 200.0 mg/kg/injection, schedule: Q01DX009 (ip), vehicle: saline with Tween-80): 93 % of control [5 of 6 alive]

IC1CCC2SC1CCC2I (configuration not stated)
T/C (dose: 50.0 mg/kg/injection, schedule: Q04DX003 (ip), vehicle: saline + alcohol): 108 % of control | T/C (dose: 100.0 mg/kg/injection, schedule: Q04DX003 (ip), vehicle: saline + alcohol): 100 and 104 % of control | T/C (dose: 200.0 mg/kg/injection, schedule: Q04DX003 (ip), vehicle: saline + alcohol): 104, 106, 109 % of control | T/C (dose: 400.0 mg/kg/injection, schedule: Q04DX003 (ip), vehicle: saline + alcohol): 104 and 112 % of control | T/C (dose: 600.0 mg/kg/injection, schedule: Q04DX003 (ip), vehicle: saline + alcohol): 99 and 108 % of control

O=P(N(CCCl)CCCl)(n1ccnc1)n1ccnc1
T/C [9]: 105 % of control | T/C [10]: 102 and 130 % of control | T/C [11]: 120 and 181 % of control | T/C [12]: 112 and 209 % of control | survivor count (dose: 400.0 mg/kg/injection, schedule: Q01DX009 (ip), vehicle: saline): 6 of 6

CN(C)/C(N)=N/P(=O)(OCc1ccccc1)OCc1ccccc1
T/C [13]: 109 % of control | T/C [14]: 106 % of control | T/C [15]: 99 % of control

CC[C@H](C)[C@@H]1NC(=O)/C(=C(\C)O)C1=O
T/C (dose: 12.5 mg/kg/injection, schedule: Q01DX009 (ip), vehicle: saline sonified): 109 % of control | T/C (dose: 25.0 mg/kg/injection, schedule: Q01DX009 (ip), vehicle: saline sonified): 100 % of control | T/C (dose: 50.0 mg/kg/injection, schedule: Q01DX009 (ip), vehicle: saline sonified): 109 % of control

C1CN1.NC(CC(=O)O)C(=O)O.Nc1ncnc2nc[nH]c12
T/C [1]: 107 % of control | T/C [2]: 104 % of control | T/C [3]: 100 % of control

O=[N+]([O-])c1cc([N+](=O)[O-])c(O)c([N+](=O)[O-])c1.OCCN1CCOc2cc3nc4ccccc4nc3cc21
T/C [10]: 98 % of control [survivor count not shown] | T/C [11]: 100 % of control [survivor count not shown] | T/C [12]: 96 % of control [survivor count not shown]

C1NNCC12CNNC2.O=[N+]([O-])c1cc([N+](=O)[O-])c(O)c([N+](=O)[O-])c1
T/C (dose: 50.0 mg/kg/injection, schedule: Q01DX001 (ip), vehicle: Klucel (hydroxypropylcellulose) (HPC)): 100 % of control [survivor count not shown] | T/C (dose: 100.0 mg/kg/injection, schedule: Q01DX001 (ip), vehicle: Klucel (hydroxypropylcellulose) (HPC)): 100 % of control [survivor count not shown] | T/C (dose: 200.0 mg/kg/injection, schedule: Q01DX001 (ip), vehicle: Klucel (hydroxypropylcellulose) (HPC)): 99 % of control [survivor count not shown]

NC(=S)N/N=C/c1ccc(N(CCCl)CCCl)cc1
T/C [16]: 109 and 115 % of control | T/C [13]: 119 and 120 % of control | T/C [14]: 100 and 129 % of control | T/C [15]: 129 % of control | survivor count [15]: 6 of 6

O=S(=O)(O)Oc1ccc(N(CCCl)CCCl)cc1
T/C [17]: 142 % of control | T/C [9]: 164 % of control | T/C [10]: 151 and 164 % of control | T/C [11]: 163 and 169 % of control | T/C [12]: 100 % of control

CCCNC(=O)c1ccc(N(CCCl)CCCl)cc1
T/C (dose: 6.25 mg/kg/injection, schedule: Q01DX009 (ip), vehicle: Klucel (hydroxypropylcellulose) (HPC)): 125 % of control | T/C (dose: 12.5 mg/kg/injection, schedule: Q01DX009 (ip), vehicle: Klucel (hydroxypropylcellulose) (HPC)): 109 % of control | T/C [16]: 112 and 134 % of control | T/C [13]: 113 and 118 % of control | T/C [14]: 101 % of control | survivor count [15]: 0 of 6

C=C1C[C@@]2(C)[C@H](OC(=O)c3ccccc3)C[C@H]1[C@@]21CO1
T/C (dose: 2.0 mg/kg/injection, schedule: Q04DX002 (ip), vehicle: distilled water + Tween-80): 99 % of control | T/C (dose: 4.0 mg/kg/injection, schedule: Q04DX002 (ip), vehicle: distilled water + Tween-80): 100 % of control | T/C (dose: 8.0 mg/kg/injection, schedule: Q04DX002 (ip), vehicle: distilled water + Tween-80): 100 % of control | T/C (dose: 16.0 mg/kg/injection, schedule: Q04DX002 (ip), vehicle: distilled water + Tween-80): 102 % of control | T/C (dose: 32.0 mg/kg/injection, schedule: Q04DX002 (ip), vehicle: distilled water + Tween-80): 100 % of control

ClC(Cl)C1SCCCS1
T/C [10]: 92 % of control [5 of 6 alive] | T/C [11]: 87 % of control | T/C [12]: 97 % of control

Cc1ccc(Sc2ccc([N+](=O)[O-])cc2[N+](=O)[O-])c([N+](=O)[O-])c1
T/C [9]: 104 % of control | T/C [10]: 109 % of control | T/C [11]: 131 % of control

O=[N+]([O-])c1cc([N+](=O)[O-])c([O-])c([N+](=O)[O-])c1.c1ccc(-c2ccc3c[n+]4ccccc4cc3c2)cc1
T/C [8]: 97 % of control | T/C [4]: 97 % of control | T/C [5]: 94 % of control | T/C [6]: 103 % of control

Nc1cc([As]=O)ccc1O (configuration not stated)
T/C [17]: 126 % of control | T/C (dose: 14.7 mg/kg/injection, schedule: Q01DX009 (ip), vehicle: Klucel (hydroxypropylcellulose) (HPC)): 106 % of control | T/C (dose: 14.8 mg/kg/injection, schedule: Q01DX009 (ip), vehicle: saline): 136 % of control | T/C (dose: 22.0 mg/kg/injection, schedule: Q01DX009 (ip), vehicle: Klucel (hydroxypropylcellulose) (HPC)): 116 % of control | T/C (dose: 22.0 mg/kg/injection, schedule: Q01DX009 (ip), vehicle: saline): 145 % of control | T/C [9]: 141 % of control | T/C (dose: 33.0 mg/kg/injection, schedule: Q01DX009 (ip), vehicle: Klucel (hydroxypropylcellulose) (HPC)): 119 % of control | T/C (dose: 33.0 mg/kg/injection, schedule: Q01DX009 (ip), vehicle: saline): 148 % of control | T/C [13]: 132 % of control | T/C [10]: 93 [5 of 6 alive] and 150 % of control [8 of 10 alive] | survivor count (dose: 75.0 mg/kg/injection, schedule: Q01DX009 (ip), vehicle: Klucel (hydroxypropylcellulose) (HPC)): 0 of 6 | survivor count (dose: 75.0 mg/kg/injection, schedule: Q01DX009 (ip), vehicle: saline): 0 of 10 and 0 of 6
